Data on two substances can be found in patent publication US5550212A (The Administrators of the Tulane Educational Fund, priority 1993, dated 1996).

Some peptides are written in HELM: one residue between dots, names in brackets for other building blocks, links after the first $.

A short description of data set [1]: general procedure: Boc solid-phase peptide synthesis; BHA resin; DIC; BOP; preformed HOBt esters for Boc-Asn-OH and Boc-Gln-OH. Conditions: whole synthesis, scale 0.11 mmole.
A short description of data set [2]: general procedure: Boc solid-phase peptide synthesis; MBHA or BHA resin (Bachem); Boc-Agm resin (California Peptide Res. Inc.); DIC; BOP; preformed HOBt esters for Boc-Asn-OH and Boc-Gln-OH. The note with it: whole synthesis, scale of the general procedure 0.11 mmole.
Data set [3] can be described thus: general procedure: Boc solid-phase peptide synthesis; MBHA resin; DIC; BOP; preformed HOBt esters for Boc-Asn-OH and Boc-Gln-OH. The note with it: whole synthesis, scale 0.11 mmole.

In the case of “PEPTIDE1{[Ibu].H.[dR].D.A.I.[Tpi].T.N.S.Y.R.K.V.L.[Abu].Q.L.S.A.R.K.L.L.Q.D.I.[Nle].S.R.[am]}$$$$V2.0”, the crude mass entry in data set [1] is listed as “approximately 150 mg”. In data set [2] (analytical HPLC, W-Porex C18, monitored at 220 and 280 nm), the “final HPLC purity” value is recorded as more than 95%.
Regarding “PEPTIDE1{[Nac].Y.[dR].D.A.I.[Phe(pCl)].T.N.S.Y.R.K.V.L.[Abu].Q.L.S.A.R.K.L.L.Q.D.I.[Nle].S.R.[am]}$$$$V2.0”, the crude mass in data set [3] was determined as 145 mg. The “final HPLC purity” value in data set [2] (220 and 280 nm) is more than 95%.
